T1: Elp1-HA (S7 Fig) (S. cerevisiae) (UniProt Q06706)
T1 sequence: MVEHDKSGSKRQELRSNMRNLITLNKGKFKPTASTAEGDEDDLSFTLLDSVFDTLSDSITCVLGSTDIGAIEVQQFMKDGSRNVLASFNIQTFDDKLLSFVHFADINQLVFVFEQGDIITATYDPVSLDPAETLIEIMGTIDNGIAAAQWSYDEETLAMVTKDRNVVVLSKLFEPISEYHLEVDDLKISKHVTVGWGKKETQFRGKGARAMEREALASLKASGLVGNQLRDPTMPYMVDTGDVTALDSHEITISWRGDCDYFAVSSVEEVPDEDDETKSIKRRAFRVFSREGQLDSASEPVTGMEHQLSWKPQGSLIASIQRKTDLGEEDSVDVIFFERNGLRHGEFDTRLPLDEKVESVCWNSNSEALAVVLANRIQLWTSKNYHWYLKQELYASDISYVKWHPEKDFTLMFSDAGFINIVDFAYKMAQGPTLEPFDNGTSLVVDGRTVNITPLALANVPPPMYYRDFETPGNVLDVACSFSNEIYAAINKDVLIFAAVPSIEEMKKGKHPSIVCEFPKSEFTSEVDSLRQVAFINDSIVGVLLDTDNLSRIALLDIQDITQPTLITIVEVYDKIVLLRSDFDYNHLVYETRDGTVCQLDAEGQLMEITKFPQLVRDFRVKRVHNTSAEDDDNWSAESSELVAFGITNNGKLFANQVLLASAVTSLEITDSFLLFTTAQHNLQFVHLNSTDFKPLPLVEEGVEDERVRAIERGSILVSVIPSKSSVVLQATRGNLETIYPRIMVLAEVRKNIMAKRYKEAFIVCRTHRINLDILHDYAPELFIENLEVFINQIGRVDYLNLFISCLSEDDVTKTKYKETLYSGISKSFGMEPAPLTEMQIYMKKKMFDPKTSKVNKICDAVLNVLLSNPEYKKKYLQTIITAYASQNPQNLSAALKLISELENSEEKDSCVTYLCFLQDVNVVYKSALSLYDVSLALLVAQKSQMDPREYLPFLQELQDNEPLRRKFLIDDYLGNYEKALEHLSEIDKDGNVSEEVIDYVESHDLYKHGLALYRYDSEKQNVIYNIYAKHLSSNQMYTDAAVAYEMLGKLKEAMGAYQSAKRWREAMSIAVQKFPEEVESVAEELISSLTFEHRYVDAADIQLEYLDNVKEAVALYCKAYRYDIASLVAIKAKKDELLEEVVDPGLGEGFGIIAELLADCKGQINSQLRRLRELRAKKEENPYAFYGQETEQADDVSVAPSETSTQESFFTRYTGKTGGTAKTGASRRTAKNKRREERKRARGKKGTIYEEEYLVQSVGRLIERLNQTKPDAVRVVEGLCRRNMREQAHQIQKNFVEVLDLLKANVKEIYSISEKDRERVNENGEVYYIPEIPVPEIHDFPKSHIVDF

T2: Elp3-TAP (S. cerevisiae) (UniProt Q02908)
T2 sequence: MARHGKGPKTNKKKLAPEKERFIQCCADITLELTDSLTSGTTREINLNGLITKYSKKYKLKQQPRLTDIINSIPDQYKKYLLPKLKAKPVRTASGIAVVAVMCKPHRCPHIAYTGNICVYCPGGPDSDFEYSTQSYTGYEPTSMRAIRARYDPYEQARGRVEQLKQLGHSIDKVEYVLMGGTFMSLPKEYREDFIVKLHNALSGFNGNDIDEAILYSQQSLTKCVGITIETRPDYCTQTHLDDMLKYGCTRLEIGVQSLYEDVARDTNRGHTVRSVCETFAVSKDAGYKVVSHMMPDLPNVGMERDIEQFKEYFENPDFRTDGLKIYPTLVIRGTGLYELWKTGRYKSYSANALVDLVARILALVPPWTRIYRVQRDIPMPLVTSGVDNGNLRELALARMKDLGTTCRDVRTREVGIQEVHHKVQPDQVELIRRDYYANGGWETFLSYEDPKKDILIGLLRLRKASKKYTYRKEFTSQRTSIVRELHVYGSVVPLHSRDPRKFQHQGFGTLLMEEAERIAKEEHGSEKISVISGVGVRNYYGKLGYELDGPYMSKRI

T3: Elp2-myc3 (S. cerevisiae) (UniProt P42935)
T3 sequence: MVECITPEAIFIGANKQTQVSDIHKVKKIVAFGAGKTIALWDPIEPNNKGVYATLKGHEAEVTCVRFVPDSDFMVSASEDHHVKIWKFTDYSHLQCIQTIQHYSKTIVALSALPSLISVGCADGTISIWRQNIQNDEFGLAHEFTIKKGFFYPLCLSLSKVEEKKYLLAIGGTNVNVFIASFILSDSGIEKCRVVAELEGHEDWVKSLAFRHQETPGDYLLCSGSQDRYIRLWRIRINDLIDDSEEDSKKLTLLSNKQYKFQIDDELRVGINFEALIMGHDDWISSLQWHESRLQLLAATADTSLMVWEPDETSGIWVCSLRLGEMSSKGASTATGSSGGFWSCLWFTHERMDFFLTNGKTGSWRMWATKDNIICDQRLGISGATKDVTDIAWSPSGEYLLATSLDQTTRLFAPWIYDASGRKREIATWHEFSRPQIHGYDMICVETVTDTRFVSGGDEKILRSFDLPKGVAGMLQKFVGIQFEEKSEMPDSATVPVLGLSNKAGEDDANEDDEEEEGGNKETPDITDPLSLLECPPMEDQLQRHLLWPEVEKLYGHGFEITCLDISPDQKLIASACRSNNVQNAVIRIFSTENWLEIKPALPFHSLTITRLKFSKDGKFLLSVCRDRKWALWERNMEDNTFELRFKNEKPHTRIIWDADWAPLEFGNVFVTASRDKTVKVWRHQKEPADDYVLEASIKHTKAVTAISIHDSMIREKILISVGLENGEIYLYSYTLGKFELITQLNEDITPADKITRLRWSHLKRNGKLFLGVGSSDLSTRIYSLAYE

B1: Kti12-myc (S7 Fig) (protein, UniProt P34253 1-313)
chain: MPLVLFTGYPCSGKTTLAKHLVQLLQSKIDATPSLSKYSITYHSDESLGIKHSDYITSQDERKLRSEIISAVKRDLSKNKIVIVDSLNYIKGFRYQLHCEVKNLSTTFCVIQTLCPPETIFEWNKTSNPNPWEPELLNQLIQRYEEPNSSNRWDSPLFAILTPQDNITDYIDDICKVVFQTSKSAKNSGHNDPLSKGLQKPNSATVLKPASQSNFIQVLDIETSKIIKTIMNHIKSLTSIGGVSNGTRVIVSEGITDINDDGCFFVDLPIGNVVTLAQLQRLKRQFINFNKLRDIDQDRIGPLFADYLNKNLN
B2: Elp1-6HA (wild-type, from YCplac111-ELP1-6HA) (protein, UniProt Q06706 1-1349)
chain: T1 sequence
B3: Elp1-S1198A S1202A-6HA (protein, UniProt Q06706 1-1349)
chain: T1 sequence with S1198A, S1202A
B4: Elp1-S1198E S1202E-6HA (protein, UniProt Q06706 1-1349)
chain: T1 sequence with S1198E, S1202E
B5: Elp1-S1209D-6HA (protein, UniProt Q06706 1-1349)
chain: T1 sequence with S1209D
B6: Elp1-S1209A-6HA (protein, UniProt Q06706 1-1349)
chain: T1 sequence with S1209A
B7: Elp1-S1198A S1202A T1204A S1205A T1206A-6HA (protein, UniProt Q06706 1-1349)
chain: T1 sequence with S1198A, S1202A, T1204A, S1205A, T1206A
B8: Elp3-HA (protein, UniProt Q02908 1-557)
chain: T2 sequence
B9: Elp5-HA (protein, UniProt P38874 1-309)
chain: MASSSHNPVILLKRILSLTESSPFILCLDSIAQTSYKLIQEFVHQSKSKGNEYPIVYISFETVNKPSYCTQFIDATQMDFVHLVKQIISYLPAATATQAKKHMVIIDSLNYISTEYITRFLSEIASPHCTMVATYHKDIKDENRTVIPDWNNNYPDKLTLLQFMATTIVDIDVVLTGTLDTEEVSELLNEFRIPRGLNNDIFQLRLVNKRKSGRSLEYDFIVNSNTHEYELLSTTKQEEESSSNGLETPEMLQGLTTFNLGTSNKQKLAKDQVALPFLEAQSFGQGGAIVYEYEKDDDYDEEDPYEDPF

Changes are numbered by the printed parent chain. In names and notes the source's numbering stands. These are yes or no findings as the source states them, for the method shown. For some of these results: Binding seen in cells or lysates may run through a third protein. Some entries that bind do so weakly or less than the wild type. For some of these results: Sequences can lack the tags named with a protein.

In one experiment the target is T1, Elp1-HA (S7 Fig) (S. cerevisiae). The experiment can be described thus: co-IP; Elp1-HA immunoprecipitated from extracts of HRR25 and hrr25-2 strains; Western blot with anti-HA, anti-myc and anti-Hrr25; untagged ELP1 as control. A general note: A western blot detects proteins with antibodies after separation by electrophoresis.
As for B1, the binding result was “binds”.

The target of another experiment is T2, Elp3-TAP (S. cerevisiae). The experiment can be described thus: tandem affinity purification with Western blot; Elongator purified by Elp3-TAP from elp1Δ ELP3-TAP strains carrying ELP1-6HA alleles; Western blot for Elp3-TAP and Elp1-6HA.
Take B2: the binding entry is “binds”. The same measure, in the same setting: the same measure for B3: “binds”; for B4: “binds”. Same read-out and setting: to B5 belongs “binds”; to B6, “binds”.

The next experiment concerns the target T3, Elp2-myc3 (S. cerevisiae). The experiment can be described thus: co-IP; Elp2-myc immunoprecipitated from extracts of elp1Δ yeast strains carrying plasmid-borne ELP1-6HA alleles (antibody coupled to Dynabeads, B60 buffer); Western blot with anti-myc, anti-HA and anti-Hrr25.
As for B2, the binding result is recorded as “binds”. As to B3, the binding result was “binds”. Still for that read-out and setting: to B4 belongs “binds”; to B7, “binds”; to B6, “binds”.

As for B8, the binding result is on record as “binds”.

For the molecule B9, the binding result is listed as “binds”.

These data come from article PMC4287497, “Phosphorylation of Elp1 by Hrr25 Is Required for Elongator-Dependent tRNA Modification in Yeast” (PLoS Genetics, 2015).
